Only a part is listed here, and it is no random draw. Results filed as inconclusive are left out. Activity calls are given as the source filed them. The call rests on the fitted dose curve; in most records, active means well fitted activation curve with a large enough effect; inconclusive means small, poorly fitted or top-dose-only effect; inactive means no such curve, though single readings can be large or run the other way.
Potency means the concentration at half of the fitted maximal effect.

This assay in a line: A quantitative high throughput screen for small molecules that induce DNA re-replication in SW480 colon adenocarcinoma cells. Further: nearly all actives have a fitted effect of over 55% in size. Conditions: Hoechst DNA content imaging, 48 h. The source says:
H Molecular Libraries Probe Production Network [MLPCN] NIH Chemical Genomics Center [NCGC] MLPCN Grant: Fast Track K99 CA136555 Assay Provider: Melvin DePamphilis, NICHD, NIH Assay Overview Eukaryotic cells normally restrict genome duplication to once per cell division. When this process is aberrant, DNA re-replication occurs when cells reinitiate DNA replication before the first round of replication is complete. DNA re-replication induces the DNA damage response, arrests cell proliferation, and triggers apoptosis. The cell cycle components cyclin A, Cdt-1, Cdc6 and geminin are critical regulators of this process and their misregulation results in DNA re-replication in normal and cancer cells. To identify compounds that induce re-replication in normal cells, an image-based assay was used to measure DNA content of nuclei, as detected by the fluorescent DNA binding dye, Hoechst. Cell nuclei were imaged by a fluorescence scanning plate imager and compounds that induce DNA re-replication were identified by the increase of nuclei with elevated fluorescence intensity
For screening, 250 cells in 5 uL/well were dispensed into black clear 1536-well plates (Aurora) using a solenoid-based dispenser. Following transfer of 23 nL compound or DMSO vehicle by a pin tool, the plates were incubated 48 hr at 37 C and 5% CO2. After addition of 1 uL/well Hoescht stain, the plates were incubated 40 min at 37 C, 5% CO2 and total intensity of fluorescent objects (nuclei) were enumerated by an Acumen Explorer Ex3 (TTP LabTech) fluorescence scanning plate imager (405 nm excitation, 500-530 nm emission). Keywords: NIH Roadmap, MLPCN, MLI, MLSMR, qHTS, NCGC, DNA replication, cancer
Take `COc1c(O)cc2c(c1OC)-c1ccc(OC)c(=O)cc1C(NC(C)=O)CC2` (stereo not drawn): the Potency is active: 231 nM.
In the case of `COc1cc2c(c(OC)c1OC)-c1ccc(SC)c(=O)cc1C(NC(C)=O)CC2` (stereo not drawn) it was active: 13 nM; in that of `COc1c(O)cc2c(c1OC)-c1ccc(SC)c(=O)cc1C(NC(C)=O)CC2` (stereo not drawn), active: 25.9 nM.

The values above are taken from PubChem BioAssay AID624297 (National Center for Advancing Translational Sciences (NCATS), 2012).
